Data as given in publication PMC10415221.
No constants are given. Whether binding was seen depends on the method and setting. In cells and extracts the contact can be indirect. Some binding calls cover weakened binding; strength is not graded here.

Sequences of proteins named here, by UniProt entry; tags and fusion partners are left off. A change or cut given only in a name is not applied to a line headed by its entry.
UniProt P25799: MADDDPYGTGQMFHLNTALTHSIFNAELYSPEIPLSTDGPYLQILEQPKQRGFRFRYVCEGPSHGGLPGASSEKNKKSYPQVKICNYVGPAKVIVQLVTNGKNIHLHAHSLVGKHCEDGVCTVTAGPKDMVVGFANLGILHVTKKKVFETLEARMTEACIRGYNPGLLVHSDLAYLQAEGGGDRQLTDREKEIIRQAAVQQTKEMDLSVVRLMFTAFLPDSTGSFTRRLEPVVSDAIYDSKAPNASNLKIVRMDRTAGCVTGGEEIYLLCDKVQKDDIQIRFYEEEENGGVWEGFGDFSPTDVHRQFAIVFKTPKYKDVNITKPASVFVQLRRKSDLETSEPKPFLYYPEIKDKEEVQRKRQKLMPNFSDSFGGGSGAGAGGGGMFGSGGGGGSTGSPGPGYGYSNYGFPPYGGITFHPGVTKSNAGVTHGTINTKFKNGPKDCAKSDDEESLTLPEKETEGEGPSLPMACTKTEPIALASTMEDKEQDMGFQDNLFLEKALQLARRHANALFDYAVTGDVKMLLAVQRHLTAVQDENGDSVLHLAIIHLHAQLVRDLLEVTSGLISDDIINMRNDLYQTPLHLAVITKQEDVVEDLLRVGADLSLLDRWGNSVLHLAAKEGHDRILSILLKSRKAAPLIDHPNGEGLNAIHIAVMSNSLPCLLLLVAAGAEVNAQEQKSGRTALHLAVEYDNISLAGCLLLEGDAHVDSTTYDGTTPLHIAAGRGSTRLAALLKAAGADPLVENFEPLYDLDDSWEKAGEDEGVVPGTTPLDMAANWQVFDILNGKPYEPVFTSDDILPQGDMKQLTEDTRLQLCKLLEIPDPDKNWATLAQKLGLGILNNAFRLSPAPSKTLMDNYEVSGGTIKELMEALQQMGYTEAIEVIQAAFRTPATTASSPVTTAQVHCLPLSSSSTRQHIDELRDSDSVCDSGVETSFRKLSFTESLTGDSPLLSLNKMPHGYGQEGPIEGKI
UniProt Q03347: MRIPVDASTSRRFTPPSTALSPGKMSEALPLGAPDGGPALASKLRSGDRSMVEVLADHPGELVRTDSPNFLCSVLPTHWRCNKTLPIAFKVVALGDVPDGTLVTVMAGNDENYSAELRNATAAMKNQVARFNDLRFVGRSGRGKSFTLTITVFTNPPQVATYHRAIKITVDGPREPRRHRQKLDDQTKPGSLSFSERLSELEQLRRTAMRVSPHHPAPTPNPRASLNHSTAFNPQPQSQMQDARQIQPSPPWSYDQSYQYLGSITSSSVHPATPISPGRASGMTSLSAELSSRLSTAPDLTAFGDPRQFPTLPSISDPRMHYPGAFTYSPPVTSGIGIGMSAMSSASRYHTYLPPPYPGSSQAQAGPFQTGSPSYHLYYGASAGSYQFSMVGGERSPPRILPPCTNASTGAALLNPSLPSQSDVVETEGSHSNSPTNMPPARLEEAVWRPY

What was measured:
[1] = biological target: NFκB1 (p105/50) (mouse (endogenous in mouse tissue)) (UniProt P25799); test: co-IP; 100 µg of lysate (Pierce IP Lysis buffer) incubated overnight at 4°C with the immunoprecipitating antibody (RUNX1 or NFκB1) along with an isotype control antibody; Protein A/G PLUS-Agarose 2 h at 4°C; SDS-PAGE and immunoblot; both orientations
[2] = biological target: RUNX1 (Runt-related transcription factor 1) (mouse (endogenous in mouse tissue)) (UniProt Q03347); test: as above

binding [1]	binding [2]	Substance
binds		RUNX1 (Runt-related transcription factor 1) (from UniProt Q03347 1-451)
	binds	NFκB1 (p105/50) (from UniProt P25799-1 1-971)
